Patent publication US20110206704A1, “Methods and compositions for modulating hepatocyte growth factor activator” (Genentech, Inc., priority 2009, published 2011)
No constants are given. Whether binding was seen depends on the method and setting. Some entries that bind do so weakly or less than the wild type. Where a sequence is shown, tags or fusion partners need not be part of it.

Target: T1, HGFA (Val373-Ser655 plus tag …) (human, UniProt Q04756 373-655)
T1 sequence: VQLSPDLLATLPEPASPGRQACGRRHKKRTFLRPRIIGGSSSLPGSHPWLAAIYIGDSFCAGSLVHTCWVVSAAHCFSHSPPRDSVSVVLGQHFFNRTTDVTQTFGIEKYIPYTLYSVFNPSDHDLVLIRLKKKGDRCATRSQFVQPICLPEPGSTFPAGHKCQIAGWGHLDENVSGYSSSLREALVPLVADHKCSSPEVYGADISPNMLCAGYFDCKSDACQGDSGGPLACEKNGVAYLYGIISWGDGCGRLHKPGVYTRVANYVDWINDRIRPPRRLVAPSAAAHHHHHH
Assay: SPR (BIAcore) competition: HGFA with KD1 at 0, 2.5 or 10 nM injected over immobilized Ab40 (competitor: Ab40)

binding: binds
B1: KD1 (Kunitz domain-1 of HGFA inhibitor-1) (protein, UniProt O43278 246-303, looked up)
chain: TEDYCLASNKVGRCRGSFPRWYYDPTEQICKSFVYGGCLGNKNNYLREEECILACRGV
modifications: biotinylated in the competition ELISA
